Laboratory results published in paper PMC13034042.
These are yes or no findings as the source states them, for the method shown. In cells and extracts the contact can be indirect. These calls come from enrichment with a bait or labelling near it, and not all partners need be listed. For some of these results: Sequences can lack the tags named with a protein. Blank lines part the entries; values can stand above or below the binder they belong to.

The chains behind the UniProt entries cited, without tags or fusion partners. Residues count along the entry.
UniProt P10664, residues 1-264: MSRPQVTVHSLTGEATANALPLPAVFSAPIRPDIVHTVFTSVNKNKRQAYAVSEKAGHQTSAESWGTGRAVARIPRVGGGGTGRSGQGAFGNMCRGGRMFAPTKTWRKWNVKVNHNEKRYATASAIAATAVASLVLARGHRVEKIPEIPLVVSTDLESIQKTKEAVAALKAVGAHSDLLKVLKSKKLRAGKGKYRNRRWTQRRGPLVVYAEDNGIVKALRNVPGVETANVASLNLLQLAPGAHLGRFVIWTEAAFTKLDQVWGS
UniProt P0CX44: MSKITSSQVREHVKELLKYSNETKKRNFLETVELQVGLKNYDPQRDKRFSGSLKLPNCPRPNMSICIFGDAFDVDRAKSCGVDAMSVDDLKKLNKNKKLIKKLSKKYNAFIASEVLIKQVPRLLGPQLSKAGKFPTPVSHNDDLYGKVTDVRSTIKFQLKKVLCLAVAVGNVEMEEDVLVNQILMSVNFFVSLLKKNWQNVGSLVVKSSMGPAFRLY

Tests used:
Experiment in all cases: proximity labelling; TurboID-fused bait expressed from a centromeric CUP1-promoter plasmid in S. cerevisiae YDK11-5A; 500 μM copper sulphate and 500 μM biotin for 1 h at 30°C; biotinylated proteins purified on streptavidin agarose and identified by LC-MS/MS; enrichment against the GFP-TurboID and NLS-GFP-TurboID type controls
[1] = biological target: Rpl4a.N264-TurboID (S. cerevisiae) (UniProt P10664)
[2] = biological target: Rpl1b-TurboID (S. cerevisiae) (UniProt P0CX44)
[3] = biological target: TurboID-Rpl1b (S. cerevisiae) (UniProt P0CX44)
[4] = biological target: T1, TurboID-Syo1 (S. cerevisiae) (UniProt Q07395)
T1 sequence: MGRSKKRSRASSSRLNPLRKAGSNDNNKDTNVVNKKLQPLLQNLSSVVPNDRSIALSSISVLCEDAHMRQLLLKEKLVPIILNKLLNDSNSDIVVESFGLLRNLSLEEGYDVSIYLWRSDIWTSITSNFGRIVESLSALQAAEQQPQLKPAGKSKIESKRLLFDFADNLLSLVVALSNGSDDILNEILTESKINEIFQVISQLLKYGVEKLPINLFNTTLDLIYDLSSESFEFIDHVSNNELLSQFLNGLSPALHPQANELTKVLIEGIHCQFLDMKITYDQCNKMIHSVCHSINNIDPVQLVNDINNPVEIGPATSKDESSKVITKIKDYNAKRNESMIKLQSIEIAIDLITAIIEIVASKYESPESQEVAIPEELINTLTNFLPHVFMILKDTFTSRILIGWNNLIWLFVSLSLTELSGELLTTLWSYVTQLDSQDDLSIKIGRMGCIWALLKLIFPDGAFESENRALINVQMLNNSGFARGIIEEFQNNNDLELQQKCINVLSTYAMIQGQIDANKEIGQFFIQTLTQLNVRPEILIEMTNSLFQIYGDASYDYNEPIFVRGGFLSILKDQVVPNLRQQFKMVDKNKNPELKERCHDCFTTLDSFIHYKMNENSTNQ

[5] = biological target: T2, Syo1-TurboID (S. cerevisiae) (UniProt Q07395)
T2 sequence: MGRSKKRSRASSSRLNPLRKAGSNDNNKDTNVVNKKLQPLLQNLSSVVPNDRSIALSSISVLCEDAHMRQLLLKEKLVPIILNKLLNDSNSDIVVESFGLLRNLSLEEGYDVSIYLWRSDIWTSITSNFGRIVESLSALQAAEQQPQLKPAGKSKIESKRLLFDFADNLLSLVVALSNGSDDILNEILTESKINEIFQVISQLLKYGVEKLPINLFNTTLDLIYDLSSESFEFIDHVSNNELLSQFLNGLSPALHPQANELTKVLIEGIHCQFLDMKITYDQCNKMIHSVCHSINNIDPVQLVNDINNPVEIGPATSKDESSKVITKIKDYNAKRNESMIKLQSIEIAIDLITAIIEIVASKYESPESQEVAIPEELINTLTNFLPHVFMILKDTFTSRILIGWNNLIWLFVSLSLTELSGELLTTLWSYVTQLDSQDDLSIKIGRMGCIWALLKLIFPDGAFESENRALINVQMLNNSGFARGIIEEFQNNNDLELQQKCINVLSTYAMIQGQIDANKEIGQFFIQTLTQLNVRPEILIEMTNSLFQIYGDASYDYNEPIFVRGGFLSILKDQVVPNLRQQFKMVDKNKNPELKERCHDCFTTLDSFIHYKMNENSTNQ

[6] = biological target: T3, TurboID-tagged Rps2 (S. cerevisiae) (UniProt P25443)
T3 sequence: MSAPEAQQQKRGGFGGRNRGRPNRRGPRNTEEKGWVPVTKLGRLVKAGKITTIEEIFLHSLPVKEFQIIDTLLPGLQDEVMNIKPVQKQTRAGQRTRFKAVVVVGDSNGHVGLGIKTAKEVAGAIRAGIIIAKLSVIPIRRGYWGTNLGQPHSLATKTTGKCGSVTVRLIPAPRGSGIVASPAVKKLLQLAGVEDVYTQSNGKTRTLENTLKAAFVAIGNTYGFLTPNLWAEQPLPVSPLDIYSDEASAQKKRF

[7] = biological target: T4, Rpl5-TurboID (S. cerevisiae) (UniProt P26321)
T4 sequence: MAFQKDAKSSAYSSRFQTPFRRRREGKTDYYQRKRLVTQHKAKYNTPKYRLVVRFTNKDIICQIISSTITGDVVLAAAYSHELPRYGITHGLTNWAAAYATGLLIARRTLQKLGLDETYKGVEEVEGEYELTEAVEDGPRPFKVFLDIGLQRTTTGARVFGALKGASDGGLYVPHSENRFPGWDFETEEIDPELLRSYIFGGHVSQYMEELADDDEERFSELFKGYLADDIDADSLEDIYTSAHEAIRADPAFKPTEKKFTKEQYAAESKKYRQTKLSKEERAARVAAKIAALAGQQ

[8] = biological target: T5, TurboID-tagged Rps3 (S. cerevisiae) (UniProt P05750)
T5 sequence: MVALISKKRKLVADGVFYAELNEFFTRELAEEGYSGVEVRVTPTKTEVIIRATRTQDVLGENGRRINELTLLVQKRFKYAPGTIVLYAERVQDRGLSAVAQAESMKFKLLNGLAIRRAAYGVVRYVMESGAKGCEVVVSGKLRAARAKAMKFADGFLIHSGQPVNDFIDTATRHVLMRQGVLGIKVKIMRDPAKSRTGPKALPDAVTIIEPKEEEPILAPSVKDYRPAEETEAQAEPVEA

- binding [1]: binds
B1: Acl4 (endogenous) (protein, UniProt Q03771 1-387)
chain: MSELEATIRQAKEALAENNAKKALKILKPFKSSLKKENANNVILNEVFADAYLDNGQVEKAYPILARACELDPEGQVGGPDKFFTMGQIMGGQDGVSIITRGIMNISNTGGEMLTNVQVEKIVGGLLSVIEIWMTDLCMEPNAEEQCEELIQKAMELTEGKSPETWSTLGSIKISQQKFGEAYEAFSQAWNFFELKKQEIGSGINENGDTTQKAGLQSEYVDLLQPLLSLTKMCLEVGAYEVALKVIAAVRDIDEDNIEGYYLEGFTYYLMSKLEIFKLNNPEVSLRPENIYEFNQLIQEVPLDLSHEPISQLIYDSRLALSFALQAGVNADSKDEIVQELLGGANALLQEIGGPLDPSELTQIKKGDLVNENEDLEELDIEEEYSD

- binding [2]: binds
- binding [3]: binds
B2: Nop2 (endogenous) (protein, UniProt P40991 1-618)
chain: MGSRRHKNKQAAPPTLEEFQARKEKKANRKLEKGKRPSTTQGDEVSDRKKKKSKPFKKSRKEEEEVVEEDKDLPEVDLEELSKARKSLFDDEEDDDEAGLVDEELKDEFDLEQEYDYDEDEDNDAHPIFSDDDDEADLEELNAQNMEALSKKLDEEEAEEAEEAEMELVEAENMQPRADILPTEEQEEMMAQETPNLTSTRTRMIEIVKVLENFKTLGAEGRSRGEYVDRLLKDICEYFGYTPFLAEKLFNLFSPAEAMEFFEANEIARPITIRTNTLKTRRRDLAQTLVNRGVNLQPIGSWTKVGLQIFDSQVPIGATPEYLAGHYILQAASSFLPVIALDPHENERILDMAAAPGGKTTYISAMMKNTGCVFANDANKSRTKSLIANIHRLGCTNTIVCNYDAREFPKVIGGFDRILLDAPCSGTGVIGKDQSVKVSRTEKDFIQIPHLQKQLLLSAIDSVDCNSKHGGVIVYSTCSVAVEEDEAVIDYALRKRPNVKLVDTGLAIGKEAFTSYRGKKFHPSVKLARRYYPHTYNVDGFFVAKFQKIGPSSFDDNQASAKEKETAARKEALEEGIIHSDFATFEDEEDDKYIEKSVKNNLLKKGVNPKAKRPSNEK

- binding [4]: binds
- binding [2]: binds
- binding [5]: binds
- binding [3]: binds
B3: Rpl5 (endogenous) (protein, UniProt P26321 1-297)
chain: MAFQKDAKSSAYSSRFQTPFRRRREGKTDYYQRKRLVTQHKAKYNTPKYRLVVRFTNKDIICQIISSTITGDVVLAAAYSHELPRYGITHGLTNWAAAYATGLLIARRTLQKLGLDETYKGVEEVEGEYELTEAVEDGPRPFKVFLDIGLQRTTTGARVFGALKGASDGGLYVPHSENRFPGWDFETEEIDPELLRSYIFGGHVSQYMEELADDDEERFSELFKGYLADDIDADSLEDIYTSAHEAIRADPAFKPTEKKFTKEQYAAESKKYRQTKLSKEERAARVAAKIAALAGQQ

- binding [6]: binds
B4: Tsr4 (endogenous) (protein, UniProt P25040 1-408)
chain: MSKIEELPPSDTDDHSYSSKPGDVFLAFVDAPVKETDDILVEDSFIGGEPKWLHPDSEPPAELLKCGACKSADNMKLLLQAFSPLDDEQMSAIQQRLGINNMSYINPQDDRVLYVFLCTECQRKGNSVRCIRGVKKNKNVDSLSEKMASTSLEKDFQINPFDLSNNSDSKCNAFSSNPFGGANANPFGADSINSNISQSKDEGKKKESATVSAKTARKLHDLQKDKEYDGNKCFKSCLLYVEEETFKNKKPAHLQLPKNLKIDKEALDLTGDEDLEKDPIKLDPRTEKLSKFLDDDTFQKFQEVVGYNPLQVLRYDLGGKPLLYAETKVDILSTVPRPGYNPSSQRIFEMQLMPKMIFDLEEVVSVDNGMEWGTILVFTDVENYMPEFDEHGVGYVEECVKVQWESRT

- binding [7]: binds
B5: Syo1 (endogenous) (protein, UniProt Q07395 1-620)
chain: MGRSKKRSRASSSRLNPLRKAGSNDNNKDTNVVNKKLQPLLQNLSSVVPNDRSIALSSISVLCEDAHMRQLLLKEKLVPIILNKLLNDSNSDIVVESFGLLRNLSLEEGYDVSIYLWRSDIWTSITSNFGRIVESLSALQAAEQQPQLKPAGKSKIESKRLLFDFADNLLSLVVALSNGSDDILNEILTESKINEIFQVISQLLKYGVEKLPINLFNTTLDLIYDLSSESFEFIDHVSNNELLSQFLNGLSPALHPQANELTKVLIEGIHCQFLDMKITYDQCNKMIHSVCHSINNIDPVQLVNDINNPVEIGPATSKDESSKVITKIKDYNAKRNESMIKLQSIEIAIDLITAIIEIVASKYESPESQEVAIPEELINTLTNFLPHVFMILKDTFTSRILIGWNNLIWLFVSLSLTELSGELLTTLWSYVTQLDSQDDLSIKIGRMGCIWALLKLIFPDGAFESENRALINVQMLNNSGFARGIIEEFQNNNDLELQQKCINVLSTYAMIQGQIDANKEIGQFFIQTLTQLNVRPEILIEMTNSLFQIYGDASYDYNEPIFVRGGFLSILKDQVVPNLRQQFKMVDKNKNPELKERCHDCFTTLDSFIHYKMNENSTNQ

- binding [8]: binds
B6: Yar1 (endogenous) (protein, UniProt P46683 1-200)
chain: MGLHSEPLDQEDQDTIILDARAGDLDSLKDIFTTLVSPELLSTCKESESDSTALHMAAANGHIETVRYILETVSRANSAEDLKAFVNEVNKTGNTALHWASLNGKLDVVKLLCDEYEADPFIRNKFGHDAIFEAENSGKEEVETYFLKKYDVEPEDDEEDTQTEGKNSVQITKGTEIEQVTKEATEALREETEKLNINKD
